# About 3,700 (1.2%) of roughly 300,000 compounds were called active. Inconclusive results, whose numbers are uncertain, are shown with a selection of clear calls. Calls come from the whole dose curve; tested in HEK293 cells. Where the call is inconclusive, the potency comes from a doubtful curve fit.
# Assay: qHTS for Inhibitors of binding or entry into cells for Lassa Virus; note: nearly all actives have a fitted effect of over 50% in size
# Conditions: Lassa virus pseudotype entry inhibition, cell reporter; series mostly up to 37.9 µM
# Potency is the fitted concentration of half-maximal effect.
row,Structure (SMILES),Potency
1,COc1ccc(C(=O)N/C(N)=N/c2nc3ccccc3o2)cc1,inactive
2,O=C(COc1ccc(S(=O)(=O)N2CCOCC2)cc1)Nc1ccc(Cl)c(C(F)(F)F)c1,"inconclusive: 18.3 µM [inhibitor, partial curve, poor fit]"
3,CC(C)CN(C(=O)CSc1nnc2ccccn12)c1c(N)n(CC(C)C)c(=O)[nH]c1=O,"inconclusive: 0.0891 µM [inhibitor, full curve, poor fit]"
4,CC1(C)CC2CC(C)(CN2C(=O)c2cc(-c3ccc(O)cc3)on2)C1 (stereo unspecified),"inconclusive: 35.5 µM [inhibitor, single point]"
5,CC(=O)N1c2ccccc2C(=O)C1N1CCN(c2cc(Cl)ccc2C)CC1 (stereo unspecified),"inconclusive: 35.5 µM [inhibitor, single point]"
6,CC(=O)NCCn1c(SCC(=O)NCCc2ccc(S(N)(=O)=O)cc2)nc2ccccc2c1=O,inactive
7,COc1ccccc1N1CCN(C(=O)Nc2cccc(Cl)c2)CC1,inactive
8,O=C(c1cccs1)N1CCCC(N2CCN(c3cccc(C(F)(F)F)c3)CC2)C1 (stereo unspecified),"inconclusive: 35.5 µM [inhibitor, single point]"
9,CCOC(=O)c1cccc(NC(=O)c2cnn(-c3ccccc3)c2-n2cccc2)c1,inactive
10,CNc1oc(-c2ccc(Cl)cc2)nc1P(=O)(c1ccccc1)c1ccccc1,"inconclusive: 9.2 µM [inhibitor, partial curve, poor fit]"
11,Cc1cc(=O)oc2cc(NC(=O)C3CCCC3)ccc12,inactive
12,Fc1ccccc1N1CCN(c2c3c(nc4nncn24)CCC3)CC1,inactive
13,CCC(Sc1nnc(-c2ccc(OC)cc2)c(-c2ccc(OC)cc2)n1)C(=O)Nc1cccc(OC)c1 (stereo unspecified),"inconclusive: 3.16 µM [inhibitor, single point]"
14,COc1ccc(CNC(=O)C/C(C)=N/NC(=O)C(c2ccccc2)c2ccccc2)cc1,inactive
15,COc1cccc(N=CC2=C(O)CC(C)(C)CC2=O)c1,inactive
16,CC(C)CC(NC(=O)c1ccc(Cl)cc1Cl)C(=O)O (stereo unspecified),"inconclusive: 25.1 µM [activator, single point]"
17,Cc1cc(C)cc(N2C(=O)CC(N3CCOCC3)C2=O)c1 (stereo unspecified),inactive
18,Cc1csc2c(N3CCN(C(=O)Nc4ccccc4)CC3)ncnc12,inactive
19,COc1ccc(CCNC(=O)CSc2nn(-c3ccccc3)c(=S)s2)cc1OC,"inconclusive: 5.62 µM [inhibitor, single point]"
20,Cc1ccccc1-c1cccc([C@@H]2C[C@H]3CN(Cc4cccnc4)C(=O)[C@]34CCCN24)c1,"inconclusive: 35.5 µM [inhibitor, single point]"
21,O=C(CNC(=O)c1ccc(Br)o1)NCc1ccc(Cl)cc1Cl,inactive
22,COc1ccc(NC(=O)Nc2cccs2)cn1,inactive
23,Cc1cc2nnn(-c3nnc(-c4ccccc4)c4ccccc34)c2cc1C,inactive

row,Structure (SMILES),Potency
1,CCCCOc1ccc(/C=C/C(=O)NC2=Nc3ccccc3NC(C)=C2C(=O)OCC)cc1OC,inactive
2,COc1ccc(N(CC(O)Cn2cnc3ccccc32)S(=O)(=O)c2ccc(C)cc2)cc1 (stereo unspecified),"inconclusive: 1.46 µM [inhibitor, partial curve, poor fit]"
3,O=C(CSc1nnc2c(n1)[nH]c1ccc(F)cc12)N1CCOCC1,inactive
4,NC(=O)c1nsc(C(=O)N(c2ccc3c(c2)OCCO3)C(C(=O)NCC2CCCO2)c2ccc(F)cc2)c1N (stereo unspecified),"inconclusive: 1 µM [inhibitor, full curve, poor fit]"
5,CC(C)(C)NS(=O)(=O)c1ccc(C(=O)Nc2ccc3c(c2)OCO3)cc1,inactive
6,Cc1nn(-c2ccccc2)c(N2CCCC2)c1/C=N/NC(=O)c1cc(-c2ccccn2)nc2ccccc12,"inconclusive: 17.8 µM [inhibitor, single point]"
7,C=CCn1c(SCC(=O)N2CC(=O)Nc3ccccc32)nc2scc(-c3cccs3)c2c1=O,active: 14.6 µM
8,O=C(Nc1ccc(S(=O)(=O)N2CCN(c3ccccc3)CC2)cc1)c1cccs1,"inconclusive: 13 µM [inhibitor, partial curve, poor fit]"
9,Cc1cccc(N(CC(=O)NCCSCc2ccco2)S(=O)(=O)c2ccccc2)c1,"inconclusive: 35.5 µM [inhibitor, single point]"
10,CCOC(=O)c1ccc(N2C(=O)c3n[nH]c(C)c3C2c2ccc(OC)cc2OC)cc1 (stereo unspecified),"inconclusive: 29.1 µM [inhibitor, single point]"
11,Cc1ccc(NC(=S)N(CCN2CCCCC2)Cc2ccco2)cc1Cl,"inconclusive: 35.5 µM [inhibitor, single point]"
12,Cc1cccc(N/N=C(\C(N)=O)C2=NC(C)(C)Cc3ccccc32)c1,active: 6.31 µM
13,CCOC(=O)C1=C(N)Oc2cc(O)ccc2C1c1ccc([N+](=O)[O-])cc1 (stereo unspecified),"inconclusive: 35.5 µM [inhibitor, single point]"
14,Cc1cccc(C(=O)NN/C=C/C(=O)c2ccccc2)c1,inactive
15,CN(Cc1ccon1)C(=O)CC1C(=O)NCCN1Cc1ccc(Cl)c(F)c1 (stereo unspecified),inactive
16,CC(C)Oc1ccc(C(=O)OC(C)C(=O)NC2CCCCC2C)cc1 (stereo unspecified),"inconclusive: 7.08 µM [inhibitor, full curve, poor fit]"
17,C=CCn1c(SCCC)nc2sc3c(c2c1=O)CCc1ccccc1-3,"inconclusive: 6.31 µM [inhibitor, single point]"
18,COc1ccc(C(=O)N/C(=C\c2cn(S(=O)(=O)N(C)C)c3ccccc23)C(=O)NCCCn2ccnc2)cc1,"inconclusive: 17.8 µM [activator, partial curve, poor fit]"
19,CN(C)c1ccc(N=C/C=C2/N(C)c3ccccc3C2(C)C)cc1,"inconclusive: 32.6 µM [inhibitor, single point]"
20,CC(C)C(NC(=O)CC12CC3CC(CC(C3)C1)C2)C(=O)O (stereo unspecified),inactive
21,COc1cc(C(=O)Nc2c(C)cc(C)cc2C)c([N+](=O)[O-])cc1OC,"inconclusive: 29.1 µM [inhibitor, single point]"
22,O=C(CSc1nnc(-c2ccccc2F)o1)N1CCc2ccccc21,inactive
23,O=C(Cc1ccc(Cl)cc1)NCC(c1cccs1)S(=O)(=O)c1ccc(Cl)cc1 (stereo unspecified),"inconclusive: 20 µM [inhibitor, single point]"

# 2 neighbouring records already listed, for reference:
row,Structure (SMILES),Potency
3,O=C(CSc1nnc2c(n1)[nH]c1ccc(F)cc12)N1CCOCC1,inactive
4,NC(=O)c1nsc(C(=O)N(c2ccc3c(c2)OCCO3)C(C(=O)NCC2CCCO2)c2ccc(F)cc2)c1N (stereo unspecified),"inconclusive: 1 µM [inhibitor, full curve, poor fit]"

# Reference: PubChem BioAssay AID540256 (National Center for Advancing Translational Sciences (NCATS), 2011)
